From paper doi:10.1101/2023.03.30.534840 come the findings set out here.

Results are given in words; binding and its absence hold for the method and conditions named. For some assays here: A result given as binding can be weak or reduced; the word gives no strength. Sequences can lack the tags named with a protein.

In test [1] the target is T1, EcSufB (BACTH fusion tested with MeSufDSU) (E. coli) (UniProt P77522).
T1 sequence: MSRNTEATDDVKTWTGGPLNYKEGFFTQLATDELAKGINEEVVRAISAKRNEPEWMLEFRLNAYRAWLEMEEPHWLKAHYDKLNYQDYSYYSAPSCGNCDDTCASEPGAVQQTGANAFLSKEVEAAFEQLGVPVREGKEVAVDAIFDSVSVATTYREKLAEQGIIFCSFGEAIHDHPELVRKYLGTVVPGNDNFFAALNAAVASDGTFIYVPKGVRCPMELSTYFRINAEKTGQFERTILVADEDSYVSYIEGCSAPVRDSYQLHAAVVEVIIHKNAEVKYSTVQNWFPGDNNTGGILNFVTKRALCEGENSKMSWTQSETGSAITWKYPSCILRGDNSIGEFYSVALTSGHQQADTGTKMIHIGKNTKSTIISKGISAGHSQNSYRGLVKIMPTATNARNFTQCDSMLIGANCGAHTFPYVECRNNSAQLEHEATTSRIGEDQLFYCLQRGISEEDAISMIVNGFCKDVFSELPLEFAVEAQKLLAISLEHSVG
Put plainly: two-hybrid.

The target in test [2] is T2, EcSufC (BACTH fusion tested with MeSufDSU) (E. coli) (UniProt P77499).
T2 sequence: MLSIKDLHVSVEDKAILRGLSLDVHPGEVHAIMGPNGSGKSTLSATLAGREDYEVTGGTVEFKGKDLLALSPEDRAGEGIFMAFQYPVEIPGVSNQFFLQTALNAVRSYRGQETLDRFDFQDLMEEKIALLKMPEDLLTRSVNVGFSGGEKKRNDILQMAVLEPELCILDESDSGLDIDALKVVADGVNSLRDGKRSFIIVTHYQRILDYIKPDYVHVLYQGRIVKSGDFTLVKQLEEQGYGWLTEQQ
Put plainly: two-hybrid.

Consider “MeSufDSU (BACTH fusion) (Monocercomonoides exilis)”, for which the binding result in test [1] is listed as “no binding”; in test [2] it was “binds”.
